Values from PubChem BioAssay AID743121 (NCATS, 2013)
Aim: 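Partners whose loss is lethal together with topoisomerase I blockade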 (primary screen). System: MDA-MB-231 cells, a human breast cancer line. Reagents: single siRNA against human genes, 20 nM siRNA (0.8 pmol per well). Time to read-out: 120 h (drug added 48 h after transfection, read 72 h later). Conditions: camptothecin 20 nM (about EC30) for 72 h; vehicle 0.1% DMSO in parallel plates. Read-out: 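Cell viability by ATP luminescence (CellTiter-Glo) as % of non-targeting siRNA wells, and the log2 ratio of viability without drug over viability with camptothecin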. Reading the numbers: log2 vehicle/camptothecin viability: higher = stronger sensitisation to camptothecin; viability with camptothecin: higher = more viable cells. Units: viability with camptothecin in % of control. Hit rule: 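Each gene scored by redundant siRNA activity (RSA) over its individual siRNA ratios; a gene is called active at p < 0.001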.
This is an unselected part of about 26,000 deposited reagents. Of all reagents, 167 (0.63%) got an active call. 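Calls are per gene from RSA p-values that are not deposited; an individual active-marked siRNA can sensitise only weakly.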 The numbers tell different reagents against one gene apart. Further read-outs or replicates are left out here.

{"gene": "CYP4B1 (cytochrome P450 family 4 subfamily B member 1)", "reagent no.": 1, "log2 vehicle/camptothecin viability": -0.0459, "viability with camptothecin": 98.5, "Outcome": "inactive"}
{"gene": "CYP4B1 (cytochrome P450 family 4 subfamily B member 1)", "reagent no.": 2, "log2 vehicle/camptothecin viability": -0.327, "viability with camptothecin": 93.6, "Outcome": "inactive"}
{"gene": "CYP4B1 (cytochrome P450 family 4 subfamily B member 1)", "reagent no.": 3, "log2 vehicle/camptothecin viability": -0.0914, "viability with camptothecin": 99.9, "Outcome": "inactive"}
{"gene": "LIPA (lipase A, lysosomal acid type)", "reagent no.": 1, "log2 vehicle/camptothecin viability": -0.0131, "viability with camptothecin": 99.7, "Outcome": "inactive"}
{"gene": "LIPA (lipase A, lysosomal acid type)", "reagent no.": 2, "log2 vehicle/camptothecin viability": -0.439, "viability with camptothecin": 116, "Outcome": "inactive"}
{"gene": "LIPA (lipase A, lysosomal acid type)", "reagent no.": 3, "log2 vehicle/camptothecin viability": -0.0514, "viability with camptothecin": 32.9, "Outcome": "inactive"}
{"gene": "CXCL1 (C-X-C motif chemokine ligand 1)", "reagent no.": 1, "log2 vehicle/camptothecin viability": -0.00281, "viability with camptothecin": 58.8, "Outcome": "inactive"}
{"gene": "CXCL1 (C-X-C motif chemokine ligand 1)", "reagent no.": 2, "log2 vehicle/camptothecin viability": -0.0944, "viability with camptothecin": 76.5, "Outcome": "inactive"}
{"gene": "CXCL1 (C-X-C motif chemokine ligand 1)", "reagent no.": 3, "log2 vehicle/camptothecin viability": -0.0336, "viability with camptothecin": 98.9, "Outcome": "inactive"}
{"gene": "CXCL1 (C-X-C motif chemokine ligand 1)", "reagent no.": 4, "log2 vehicle/camptothecin viability": 0.0615, "viability with camptothecin": 55.8, "Outcome": "inactive"}
{"gene": "CXCL6 (C-X-C motif chemokine ligand 6)", "reagent no.": 1, "log2 vehicle/camptothecin viability": 0.0517, "viability with camptothecin": 93.9, "Outcome": "inactive"}
{"gene": "CXCL6 (C-X-C motif chemokine ligand 6)", "reagent no.": 2, "log2 vehicle/camptothecin viability": 0.249, "viability with camptothecin": 49.2, "Outcome": "inactive"}
{"gene": "CXCL6 (C-X-C motif chemokine ligand 6)", "reagent no.": 3, "log2 vehicle/camptothecin viability": -0.255, "viability with camptothecin": 92, "Outcome": "inactive"}
{"gene": "CXCL6 (C-X-C motif chemokine ligand 6)", "reagent no.": 4, "log2 vehicle/camptothecin viability": -0.173, "viability with camptothecin": 107, "Outcome": "inactive"}
{"gene": "CFAP263 (cilia and flagella associated protein 263)", "reagent no.": 1, "log2 vehicle/camptothecin viability": 0.389, "viability with camptothecin": 68.3, "Outcome": "inactive"}
{"gene": "CFAP263 (cilia and flagella associated protein 263)", "reagent no.": 2, "log2 vehicle/camptothecin viability": 0.472, "viability with camptothecin": 70.8, "Outcome": "inactive"}
{"gene": "CFAP263 (cilia and flagella associated protein 263)", "reagent no.": 3, "log2 vehicle/camptothecin viability": -0.226, "viability with camptothecin": 106, "Outcome": "inactive"}
{"gene": "KCNQ3 (potassium voltage-gated channel subfamily Q member 3)", "reagent no.": 1, "log2 vehicle/camptothecin viability": 0.0653, "viability with camptothecin": 83.4, "Outcome": "inactive"}
{"gene": "KCNQ3 (potassium voltage-gated channel subfamily Q member 3)", "reagent no.": 2, "log2 vehicle/camptothecin viability": -0.43, "viability with camptothecin": 91.5, "Outcome": "inactive"}
{"gene": "KCNQ3 (potassium voltage-gated channel subfamily Q member 3)", "reagent no.": 3, "log2 vehicle/camptothecin viability": -0.266, "viability with camptothecin": 95.4, "Outcome": "inactive"}
{"gene": "KCNQ3 (potassium voltage-gated channel subfamily Q member 3)", "reagent no.": 4, "log2 vehicle/camptothecin viability": -0.327, "viability with camptothecin": 97.7, "Outcome": "inactive"}
{"gene": "NKX3-1 (NK3 homeobox 1)", "reagent no.": 1, "log2 vehicle/camptothecin viability": -0.188, "viability with camptothecin": 111, "Outcome": "inactive"}
{"gene": "NKX3-1 (NK3 homeobox 1)", "reagent no.": 2, "log2 vehicle/camptothecin viability": -0.444, "viability with camptothecin": 58.3, "Outcome": "inactive"}
{"gene": "NKX3-1 (NK3 homeobox 1)", "reagent no.": 3, "log2 vehicle/camptothecin viability": -0.275, "viability with camptothecin": 65.3, "Outcome": "inactive"}
{"gene": "NKX3-1 (NK3 homeobox 1)", "reagent no.": 4, "log2 vehicle/camptothecin viability": -0.552, "viability with camptothecin": 51.4, "Outcome": "inactive"}
{"gene": "RYK (receptor like tyrosine kinase)", "reagent no.": 1, "log2 vehicle/camptothecin viability": -0.216, "viability with camptothecin": 102, "Outcome": "inactive"}
{"gene": "RYK (receptor like tyrosine kinase)", "reagent no.": 2, "log2 vehicle/camptothecin viability": -0.211, "viability with camptothecin": 95.8, "Outcome": "inactive"}
{"gene": "RYK (receptor like tyrosine kinase)", "reagent no.": 3, "log2 vehicle/camptothecin viability": -0.486, "viability with camptothecin": 73, "Outcome": "inactive"}
{"gene": "RYK (receptor like tyrosine kinase)", "reagent no.": 4, "log2 vehicle/camptothecin viability": -0.431, "viability with camptothecin": 54.3, "Outcome": "inactive"}
{"gene": "PTPRN2 (protein tyrosine phosphatase receptor type N2)", "reagent no.": 1, "log2 vehicle/camptothecin viability": -0.0324, "viability with camptothecin": 102, "Outcome": "inactive"}
{"gene": "PTPRN2 (protein tyrosine phosphatase receptor type N2)", "reagent no.": 2, "log2 vehicle/camptothecin viability": -0.68, "viability with camptothecin": 58.7, "Outcome": "inactive"}
{"gene": "PTPRN2 (protein tyrosine phosphatase receptor type N2)", "reagent no.": 3, "log2 vehicle/camptothecin viability": 0.0143, "viability with camptothecin": 30.3, "Outcome": "inactive"}
{"gene": "PTPRN2 (protein tyrosine phosphatase receptor type N2)", "reagent no.": 4, "log2 vehicle/camptothecin viability": -0.111, "viability with camptothecin": 90, "Outcome": "inactive"}
{"gene": "PIM3 (Pim-3 proto-oncogene, serine/threonine kinase)", "reagent no.": 1, "log2 vehicle/camptothecin viability": -0.318, "viability with camptothecin": 102, "Outcome": "inactive"}
{"gene": "PIM3 (Pim-3 proto-oncogene, serine/threonine kinase)", "reagent no.": 2, "log2 vehicle/camptothecin viability": -0.147, "viability with camptothecin": 79.9, "Outcome": "inactive"}
{"gene": "PIM3 (Pim-3 proto-oncogene, serine/threonine kinase)", "reagent no.": 3, "log2 vehicle/camptothecin viability": -0.0367, "viability with camptothecin": 96.4, "Outcome": "inactive"}
{"gene": "PIM3 (Pim-3 proto-oncogene, serine/threonine kinase)", "reagent no.": 4, "log2 vehicle/camptothecin viability": -0.286, "viability with camptothecin": 97.7, "Outcome": "inactive"}
{"gene": "PIM3 (Pim-3 proto-oncogene, serine/threonine kinase)", "reagent no.": 5, "log2 vehicle/camptothecin viability": 0.242, "viability with camptothecin": 77.8, "Outcome": "inactive"}
{"gene": "PIM3 (Pim-3 proto-oncogene, serine/threonine kinase)", "reagent no.": 6, "log2 vehicle/camptothecin viability": -0.174, "viability with camptothecin": 107, "Outcome": "inactive"}
